The other results are listed elsewhere or left out.

The chains behind the UniProt entries cited, without tags or fusion partners.
UniProt Q0JBA9, entry or part of it: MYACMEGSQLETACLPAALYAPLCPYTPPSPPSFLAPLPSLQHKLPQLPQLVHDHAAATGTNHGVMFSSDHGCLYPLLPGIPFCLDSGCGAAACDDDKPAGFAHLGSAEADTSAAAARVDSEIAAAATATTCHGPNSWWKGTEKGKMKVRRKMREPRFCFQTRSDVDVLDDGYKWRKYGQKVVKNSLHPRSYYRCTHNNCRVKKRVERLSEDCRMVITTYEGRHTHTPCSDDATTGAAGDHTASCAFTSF

For the test, the target named is OsWRKY34 (Oryza sativa, UniProt Q0JBA9 1-250). The test can be described thus: protein-binding microarray (RPBM); PBS, 2% BSA, 51.3 ng/ul salmon testes DNA, 50 uM zinc acetate, 200 nM TF, 25 C, 1 h; high values mean tight binding. The note with it: protein: recombinant; tags: N-terminal polyhistidine and DsRed monomer fusion (pET32a); label: CyDye5-dUTP incorporated in the synthesized complementary strand; 3' TTTTT single-stranded linker to array surface; dsDNA, one strand shown. The essentials:
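The binding signal for each feature is its fluorescence intensity in arbitrary units. An Axon 4000B scanner was used to read a custom Agilent array that had been made double-stranded with Cy5-dUTP primer extension, blocked with 2% BSA, incubated at 25 °C for 1 h with 200 nM protein in PBS, 2% BSA, salmon testes DNA and 50 µM zinc acetate, and washed. The protein was an N-terminal polyhistidine–DsRed transcription factor fusion from E. coli BL21-CodonPlus, purified on Ni–NTA.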
As to “GTGTGTTATTTTCTTCCACTCTTTAGTTTTCACTTTTTGACGGAGTCACCTAGTGCAG”, the binding signal is 9240 fluorescence intensity (a.u.).

As for “CTCTCGCCCTTCGCGCTGACCTCCTCACAGCTGCTCTCGCCGGAGTCACCTAGTGCAG”, the binding signal is 8440 fluorescence intensity (a.u.).

For “GGAGGAGGAGGAGGGAGAGGGTGGTGTAGTGGGAGCGGCCCGGAGTCACCTAGTGCAG”, the binding signal was 8170 fluorescence intensity (a.u.).

Regarding “GCCGCTCTCACTTCAATCCTAACCAAAGTGCACACAAGATCGGAGTCACCTAGTGCAG”, the binding signal was 9450 fluorescence intensity (a.u.).

On to “TCGGTCTCTCACTCTCACGGTCTCACCTCCTCCTCCTCCTCGGAGTCACCTAGTGCAG”, for which the binding signal was 13400 fluorescence intensity (a.u.).

As for “TTCTTGCTGATGCCTGTGTTTTGGGATGAGATTTTTTTTTCGGAGTCACCTAGTGCAG”, the binding signal was 10000 fluorescence intensity (a.u.).

As for “GCAAACACTCTCTCTATAGATATGTCACTAGCACCATATGCGGAGTCACCTAGTGCAG”, the binding signal was 8310 fluorescence intensity (a.u.).

With “TTCGCATCGGCGTTGCTTCCAACGAGAGGGAGGGAGGGAGCGGAGTCACCTAGTGCAG”, the binding signal is 9600 fluorescence intensity (a.u.).

“AGAATATGTCGTTGGCGACCTGCCGGTCCAGCATCACCTCCGGAGTCACCTAGTGCAG”: the binding signal was 8820 fluorescence intensity (a.u.).

As for “TTGCCCGTAAGTATCTTTCTCATCTTCTTTTTTTCCTTTTCGGAGTCACCTAGTGCAG”, the binding signal was 14500 fluorescence intensity (a.u.).

Regarding “AGCACCTTTTTCATTGTAAGAGCATCCCAGCAGCTTATCCCGGAGTCACCTAGTGCAG”, the binding signal was 8170 fluorescence intensity (a.u.).

On to “AAGTTCATGGATGTCCTGTTGCCCATCCGTATTTCCTTTCCGGAGTCACCTAGTGCAG”, for which the binding signal is 9720 fluorescence intensity (a.u.).

Take “AGTGTTGACTTTTAAATTAATAAACTGTTTTGGTTTATTACGGAGTCACCTAGTGCAG”: the binding signal is 10500 fluorescence intensity (a.u.).

Consider “ACTGTAGCCCATTTTTGATATGGCCAAGGCCCACATAGCACGGAGTCACCTAGTGCAG”, for which the binding signal is 8260 fluorescence intensity (a.u.).

For the sequence “TATTCCCTTCTCATTTCTCCATGCTACTCTTTGTTTTCATCGGAGTCACCTAGTGCAG”, the binding signal is 9240 fluorescence intensity (a.u.).

As to “GCATTATATTTTTGACCTGTTCATTCCATTATGTTAGAATCGGAGTCACCTAGTGCAG”, the binding signal is 8790 fluorescence intensity (a.u.).

As for “TCTCTTATACTGATTTTTGGGTCCAATCCCTTACCGTTGACGGAGTCACCTAGTGCAG”, the binding signal was 8150 fluorescence intensity (a.u.).

Consider “TCTCCATGCTATTCATTCCGTTTCTTAATATATGTCAATTCGGAGTCACCTAGTGCAG”, for which the binding signal was 10600 fluorescence intensity (a.u.).

Turning to “TTCCTTGTTCTAGTGTTTCTATTTTTTATTTTTGGCTCAACGGAGTCACCTAGTGCAG”, the binding signal is 10200 fluorescence intensity (a.u.).

With “CGACCGCGCGCAACCACAGCCACCGCCCACAAACTCCAGTCGGAGTCACCTAGTGCAG”, the binding signal was 8640 fluorescence intensity (a.u.).

Consider “TGCTCCACTCTGTTTTTTTTACCAAACACTATTTTTTTAACGGAGTCACCTAGTGCAG”, for which the binding signal was 8210 fluorescence intensity (a.u.).

Regarding “TTTTTGTTCGACCATTCACATCTCGACCAGTCGATTTTCTCGGAGTCACCTAGTGCAG”, the binding signal is 9200 fluorescence intensity (a.u.).

Consider “CCTGCACACAACGCCGCCGCCGTTATTATATATGAACGTTCGGAGTCACCTAGTGCAG”, for which the binding signal was 10900 fluorescence intensity (a.u.).

“CTTTGATGTGGGTTTTTCTAGTTCCTTCTTCGAGTTCATTCGGAGTCACCTAGTGCAG”: the binding signal is 8160 fluorescence intensity (a.u.).

In the case of “TGTGGGCTGCGGTTGACGAGGAGGGAGGGAGGTCGCGATGCGGAGTCACCTAGTGCAG”, the binding signal is 8420 fluorescence intensity (a.u.).

On to “GGCCCCACCTGCAGCCTCACATCACAAAGCCATCAAAACCCGGAGTCACCTAGTGCAG”, for which the binding signal is 9080 fluorescence intensity (a.u.).

In the case of “TTATCACGCTTCTAGCTTCATTTAAGCCGTCCAAAACCCTCGGAGTCACCTAGTGCAG”, the binding signal is 8090 fluorescence intensity (a.u.).

Turning to “CCTCCTCGCGTACGGTTTTTCCCCTTGCGAGATCCATCTCCGGAGTCACCTAGTGCAG”, the binding signal was 8880 fluorescence intensity (a.u.).

Take “CCACACCACGCGTTTCGTCTCACCCGGGATTTTTTTTTTCCGGAGTCACCTAGTGCAG”: the binding signal is 14000 fluorescence intensity (a.u.).

Take “TTTTTTTACTTGTTCATCATATTATTTAACTATTAATTTCCGGAGTCACCTAGTGCAG”: the binding signal was 8560 fluorescence intensity (a.u.).

Turning to “TTCTTTTCTTTCTCCCTATCTTCAGTTTTGCATTGCGAGACGGAGTCACCTAGTGCAG”, the binding signal is 8040 fluorescence intensity (a.u.).

Take “GCGGAGGAAAGGTGGGGTGGTAAAAAACGGAAAAACCGGACGGAGTCACCTAGTGCAG”: the binding signal was 8960 fluorescence intensity (a.u.).

“TGCCGTCTGCGGCGGGGCGAAATGTGTGGTGTGGGCTAAACGGAGTCACCTAGTGCAG”: the binding signal is 9850 fluorescence intensity (a.u.).

For the sequence “GTTCGCGCAAAGCACGCTGCTTTTCTCCGCTTTGCGAGCACGGAGTCACCTAGTGCAG”, the binding signal was 9530 fluorescence intensity (a.u.).

Turning to “AAAAGCCACCATTTACCTAGTGTTTTCACTTTGGACGGAGCGGAGTCACCTAGTGCAG”, the binding signal was 9420 fluorescence intensity (a.u.).

“AAGGATAAACAAGTGCGATGAAGTTACACTCAAAACTAAACGGAGTCACCTAGTGCAG”: the binding signal was 8210 fluorescence intensity (a.u.).

“GTTTGACTTTTTTTTTACGGGGAGAATTCTCCTTTGCAATCGGAGTCACCTAGTGCAG”: the binding signal was 14900 fluorescence intensity (a.u.).

With “CATCCCTAGCCACTACCTACCCTTTGACAAGCTAGTCCTTCGGAGTCACCTAGTGCAG”, the binding signal is 9820 fluorescence intensity (a.u.).

With “GGCAGTATTGTGTCTGGTTTTAGCTAACGTGGCGTATACGCGGAGTCACCTAGTGCAG”, the binding signal was 8090 fluorescence intensity (a.u.).

With “TCTTCCGTATTTAAGTGATCGGCACTCAGCAGCTCTGTGACGGAGTCACCTAGTGCAG”, the binding signal was 9290 fluorescence intensity (a.u.).

For the sequence “GCTGTGGAGTGTGGAGTGCCAATTACTATAGAGATGAACCCGGAGTCACCTAGTGCAG”, the binding signal was 9210 fluorescence intensity (a.u.).

For “AATTGTTTTATGATCCTAGTATTCCTTGTTAAGTTACATTCGGAGTCACCTAGTGCAG”, the binding signal was 10100 fluorescence intensity (a.u.).

These data come from publication PMC7819943, “Rice protein-binding microarrays: a tool to detect cis-acting elements near promoter regions in rice”.
